Experiment [1] addresses T1, FLAG-tagged N50A/D65A Them2 expressed in mouse skeletal muscle from AAV8-Mck-N50A/D65A Them2 (mouse) (UniProt Q9CQR4).
T1 sequence: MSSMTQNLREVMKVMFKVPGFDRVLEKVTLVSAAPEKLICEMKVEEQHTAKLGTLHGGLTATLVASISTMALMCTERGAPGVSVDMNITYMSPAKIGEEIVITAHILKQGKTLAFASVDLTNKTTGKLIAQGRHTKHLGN
Kind of experiment: co-IP; anti-FLAG magnetic agarose; gastrocnemius lysates 7 days after i.m. AAV8 injection; lysis buffer 25 mM Tris-HCl pH 7.4, 150 mM NaCl, 1 mM EDTA, 1% NP-40, 5% glycerol; 37 °C, 40 min; immunoblot.

Experiment [2] addresses T2, FLAG-tagged WT Them2 expressed in mouse skeletal muscle from AAV8-Mck-WT Them2 (mouse) (UniProt Q9CQR4).
T2 sequence: T1 sequence with A50N, A65D
The experiment is described as above.

We go through one molecule from publication PMC11570472, “Activity and phosphatidylcholine transfer protein interactions of skeletal muscle thioesterase Them2 enable hepatic steatosis and insulin resistance” (The Journal of Biological Chemistry, 2024).

Positions count from the first letter of the chain named. These are yes or no findings as the source states them, for the method shown. In cells and extracts the contact can be indirect. Some binding calls cover weakened binding; strength is not graded here. Sequences can lack the tags named with a protein.

B1: phosphatidylcholine transfer protein (PC-TP) (protein, UniProt P53808 1-214)
chain: MAGAACCFSDEQFREACAELQKPALTGADWQLLVEASGITIYRLLDQPSGLYEYKVFGVLEGCSPALLTDVYMDLDYRKQWDQYVKELYEKESDEQMVAYWEVKYPFPLSNRDYVYTRQRRDLDVDRRKIYVVLAQSISAPQFPEKSGVIRVKQYKQSLAIESDGKKGSRVFMYYFDNPGGQIPSWLINWAAKNGVPNFLKDMVKACQNYHKKT
Turning to B1, the binding result in experiment [1] and in experiment [2] was “binds” throughout.
